From publication PMC9931111
No constants are given. Whether binding was seen depends on the method and setting. Binding can be weak; no strength is given. For some of these results: Tags and fused reporters may be left off the sequences shown. For some of these results: In cells and extracts the contact can be indirect.

What was measured:
[1] = molecular target: T1, CERBERUS-mCherry (Lotus japonicus) (UniProt C6L7U1); assay: co-IP; GFP-RPG and CERBERUS-mCherry co-expressed in N. benthamiana leaves, harvested 60 h after agroinfiltration; lysate (50 mM Tris-MES pH 8.0, 0.5 M sucrose, 1 mM MgCl2, 10 mM EDTA, 5 mM DTT, 0.2% NP-40) incubated 1.5 h at 4°C with Anti-RFP Affinity beads; immunoblot with anti-mCherry and …
T1 sequence: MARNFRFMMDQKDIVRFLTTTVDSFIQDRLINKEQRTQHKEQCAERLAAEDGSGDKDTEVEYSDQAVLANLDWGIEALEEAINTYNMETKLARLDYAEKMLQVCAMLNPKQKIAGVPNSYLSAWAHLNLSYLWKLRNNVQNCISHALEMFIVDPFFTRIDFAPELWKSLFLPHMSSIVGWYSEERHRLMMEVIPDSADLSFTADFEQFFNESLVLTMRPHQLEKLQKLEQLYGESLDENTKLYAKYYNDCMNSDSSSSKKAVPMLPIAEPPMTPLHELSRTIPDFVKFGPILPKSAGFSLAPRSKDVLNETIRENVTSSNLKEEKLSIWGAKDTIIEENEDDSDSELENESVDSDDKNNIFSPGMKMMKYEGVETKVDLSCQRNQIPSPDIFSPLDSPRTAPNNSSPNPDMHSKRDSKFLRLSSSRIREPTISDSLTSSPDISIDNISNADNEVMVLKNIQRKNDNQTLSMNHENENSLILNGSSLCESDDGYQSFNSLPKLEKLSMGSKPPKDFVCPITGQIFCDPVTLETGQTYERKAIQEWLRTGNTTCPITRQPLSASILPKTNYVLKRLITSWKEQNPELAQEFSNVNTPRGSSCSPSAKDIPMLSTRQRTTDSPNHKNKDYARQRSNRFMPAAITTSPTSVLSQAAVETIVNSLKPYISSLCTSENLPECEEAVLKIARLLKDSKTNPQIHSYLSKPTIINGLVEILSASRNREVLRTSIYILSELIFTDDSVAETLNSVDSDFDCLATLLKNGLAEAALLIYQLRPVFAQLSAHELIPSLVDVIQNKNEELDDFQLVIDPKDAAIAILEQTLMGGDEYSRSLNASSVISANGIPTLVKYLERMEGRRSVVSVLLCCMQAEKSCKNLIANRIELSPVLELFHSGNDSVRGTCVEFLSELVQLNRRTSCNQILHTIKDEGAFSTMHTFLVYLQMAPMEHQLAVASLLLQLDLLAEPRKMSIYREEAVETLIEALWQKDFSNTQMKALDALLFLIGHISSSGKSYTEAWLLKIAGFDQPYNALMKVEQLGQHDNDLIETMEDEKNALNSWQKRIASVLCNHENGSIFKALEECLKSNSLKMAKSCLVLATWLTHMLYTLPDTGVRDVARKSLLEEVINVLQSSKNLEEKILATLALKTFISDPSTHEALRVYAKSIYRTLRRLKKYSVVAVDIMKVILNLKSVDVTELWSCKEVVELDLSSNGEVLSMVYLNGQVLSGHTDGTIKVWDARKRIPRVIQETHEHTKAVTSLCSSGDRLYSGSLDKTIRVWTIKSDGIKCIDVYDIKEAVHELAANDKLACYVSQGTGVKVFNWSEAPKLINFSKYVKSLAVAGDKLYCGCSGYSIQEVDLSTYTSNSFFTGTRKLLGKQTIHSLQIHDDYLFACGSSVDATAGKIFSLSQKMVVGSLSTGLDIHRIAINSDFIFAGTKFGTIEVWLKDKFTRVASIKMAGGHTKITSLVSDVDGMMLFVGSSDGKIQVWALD

[2] = molecular target: T2, CERBERUS-LUCn (Lotus japonicus) (UniProt C6L7U1); assay: split reporter; split-luciferase complementation imaging in N. benthamiana leaves, agroinfiltration with p19, imaged two days later after spraying 1 mM luciferin
T2 sequence: T1 sequence

[3] = molecular target: T3, full length CERBERUS, yeast two-hybrid fusion (Lotus japonicus) (UniProt C6L7U1); assay: two-hybrid; GAL4-based yeast two-hybrid in strain AH109; growth on SD/-LWH after gradient dilution, three days
T3 sequence: T1 sequence

[4] = molecular target: T4, nVenus-CERBERUS (Lotus japonicus) (UniProt C6L7U1); assay: split reporter; BiFC with split Venus in L. japonicus Gifu hairy roots (root hairs), before and after rhizobial inoculation
T4 sequence: T1 sequence

[5] = molecular target: T4, nVenus-CERBERUS (Lotus japonicus); assay: split reporter; BiFC with split Venus in M. truncatula sunn-1 hairy roots, after inoculation with S. meliloti 1021/mCherry
[6] = molecular target: T4, nVenus-CERBERUS (Lotus japonicus); assay: split reporter; BiFC with split Venus in N. benthamiana leaves, agroinfiltration with p19, confocal images two to three days later

For GFP-RPG (Lotus japonicus), the binding [1] was “binds”.

For LUCc-RPG (Lotus japonicus), the binding [2] was “binds”.

In the case of “RPG lacking the NT-C2 domain (CC), yeast two-hybrid fusion (Lotus japonicus) (domain or fragment)”, the binding [3] is reported as “binds”.

cVenus-RPG (Lotus japonicus) was tested, and the binding [4] was “binds”, the binding [5] was “binds” and the binding [6] was “binds”.

For “full-length RPG (RPG-FL), yeast two-hybrid fusion (Lotus japonicus)”, the binding [3] was “binds”.
